Experimental data taken from article PMC10225365.
No constants are given. Whether binding was seen depends on the method and setting. Some results given as binding are weak or reduced against the parent protein; the word gives no strength. Each block holds one binder with its values, some of them ahead of it.

Legend:
[1] = target: T1, Ovalbumin (albumin from chicken egg white) dialyzed against PBS (control OVA) (chicken (Gallus gallus)); assay: SEC; FPLC, Superdex 200 10/300 GL, isocratic elution with 50 mM Tris pH 7.4, 100 mM NaCl, 8 °C, absorbance at 280 nm; dialyzed OVA samples; monomeric and dimeric fractions assigned by column volume; both purified; details: remark: other sources report otherwise
T1 chain: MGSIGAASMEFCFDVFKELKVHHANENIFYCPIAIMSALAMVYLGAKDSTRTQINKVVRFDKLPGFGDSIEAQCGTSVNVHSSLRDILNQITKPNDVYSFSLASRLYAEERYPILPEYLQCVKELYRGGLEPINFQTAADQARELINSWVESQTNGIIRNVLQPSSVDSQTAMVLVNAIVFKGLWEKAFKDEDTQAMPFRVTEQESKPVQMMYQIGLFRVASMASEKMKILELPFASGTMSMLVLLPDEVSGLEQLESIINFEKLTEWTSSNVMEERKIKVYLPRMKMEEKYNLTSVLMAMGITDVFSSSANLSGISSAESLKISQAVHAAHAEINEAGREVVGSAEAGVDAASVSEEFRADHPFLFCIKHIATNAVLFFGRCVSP

[2] = target: T2, Ovalbumin dialyzed against LAP (LAP-modified OVA) (chicken (Gallus gallus)); assay: as above; details: remark: other sources report otherwise
T2 chain: T1 chain

binding [1]: binds
B1: Ovalbumin (albumin from chicken egg white) dialyzed against PBS (control OVA) (protein)
chain: T1 chain

binding [2]: binds
B2: Ovalbumin dialyzed against LAP (LAP-modified OVA) (protein)
chain: T1 chain
modifications: here or on the partner: oxidation at M9, M36, M197, M274 (by UPLC-MS/MS after tryptic digestion); oxidation at M9, M36, M197, M274 (by UPLC-MS/MS after tryptic digestion)
